For at least one compound, name, drawing or mass did not settle the structure.
Tests used:
Assay type in all cases: cell-based, human
MUC genes = test: qPCR of MUC gene expression in Caco-2:HT-29-MTX 75:25 coculture (general statements); settings: L-threonine 400 μg/ml as a sole agent; 24 h
MUC7 = test: qPCR of MUC gene expression in Caco-2:HT-29-MTX 75:25 coculture; settings: titration, FIGS. 9A & 9B; 24 h
Description: (§1) Caco-2:HT-29-MTX 75:25 coculture: This co-culture model was used to simulate the human colonic epithelium (Hilgendorh C, 2000). The Caco-2 cells (passage 8) and the HT29-MTX cells (passage 9) were combined at a 75:25 ratio in DMEM with 10% FBS. The combined cells (6.4×10^4 cells/ml) were seeded into 25 cm^2 in a total of 5 ml per flask. The coculture was incubated at 37° C. in a 5% CO2 atmosphere with medium refreshed every 48 h. At 15 days post seeding, the coculture monolayer was washed three times in DMEM and replaced with 5 ml of pre-warmed test solution, and then incubated for 24 h.
(§2) Before RNA extraction, cells were collected by centrifugation at 5,000 g for 5 min, 4° C. the cell pellet was washed three times in ice-cold PBS followed by resuspension in 500 μl of ice-cold PBS. The total RNA of 2×10^6 cells per sample was extracted using a PureLink RNA mini kit with 1.5 μg of RNA (with A260/A280 ratio between 2.00 and 2.20) reverse-transcribed into cDNA using a High Capacity cDNA RT kit. The expression of the genes of interest was quantified using the PowerUp SYBR green Master mix. […] The results of qPCR were analysed with the 2-ΔΔCT method as previously described using the QuantStudio Software V1.3 (Applied Biosystems). […]
(§3) The expression of the human MUC2 and MUC7 genes in the Caco-2:HT-29-MTX 75:25 coculture was quantified using the PowerUp SYBR green Master mix (Applied Biosystems). […]

MUC2 = test: as above; settings: titration, FIGS. 9A & 9B; 24 h
Description: as §1, §2, §3

C[C@@H](O)[C@H](N)C(=O)O [L-threonine]
effect on the expression of any of the MUC genes tested (MUC genes): did not exert a statistically significant effect | effect on the expression of MUC7, individually (MUC7): did not exert a major effect | effect on the expression of MUC2, individually (MUC2): did not exert a major effect

Source: patent US20240091324A1, “GASTROINTESTINAL HEALTH COMPOSITION” (priority 2019, published 2024)
